# Results are given in words; binding and its absence hold for the method and conditions named. In cells and extracts the contact can be indirect. Some results given as binding are weak or reduced against the parent protein; the word gives no strength.
# Amino acid sequences for entries named in this document (tags omitted). A change or cut given only in a name is not applied to a line headed by its entry. Residues count along the entry.
# UniProt Q9NZQ7: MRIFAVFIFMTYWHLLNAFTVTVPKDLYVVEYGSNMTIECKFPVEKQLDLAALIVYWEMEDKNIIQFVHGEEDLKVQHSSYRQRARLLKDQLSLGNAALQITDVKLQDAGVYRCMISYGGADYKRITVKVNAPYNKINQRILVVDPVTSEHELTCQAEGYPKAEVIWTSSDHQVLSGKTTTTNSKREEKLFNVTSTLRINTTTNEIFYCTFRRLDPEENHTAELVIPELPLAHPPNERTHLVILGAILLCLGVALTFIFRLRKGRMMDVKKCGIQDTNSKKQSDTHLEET
# programmed death-ligand 1 (PD-L1): residues 19-290 of Q9NZQ7
# UniProt Q15717: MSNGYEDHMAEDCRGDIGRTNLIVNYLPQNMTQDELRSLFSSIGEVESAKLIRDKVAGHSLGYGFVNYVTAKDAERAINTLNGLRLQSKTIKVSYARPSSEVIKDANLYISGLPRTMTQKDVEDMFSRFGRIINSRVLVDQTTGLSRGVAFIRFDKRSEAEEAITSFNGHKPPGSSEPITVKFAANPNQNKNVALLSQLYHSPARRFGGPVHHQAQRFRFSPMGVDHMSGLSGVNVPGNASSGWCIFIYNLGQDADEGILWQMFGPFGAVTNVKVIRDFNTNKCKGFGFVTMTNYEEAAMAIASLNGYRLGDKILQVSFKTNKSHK
# human antigen R (HuR): residues 2-326 of Q15717
# Tests used:
# [1] = target: programmed death-ligand 1 (PD-L1) (UniProt Q9NZQ7); assay: co-IP with HuR truncations, western blot
# [2] = target: human antigen R (HuR) (human) (UniProt Q15717); assay: co-IP with PD-L1 truncations, western blot
Substance,binding [1],binding [2]
HuR truncation RRM2+3 (from UniProt Q15717 106-326),binds,
PD-L1 truncation containing the transmembrane domain plus cytoplasmic domain (T+C) (from UniProt Q9NZQ7 239-290),,binds

# Reference: patent publication US20200338112A1, “METHODS AND MATERIALS FOR TREATING CANCER” (Mayo Foundation for Medical Education and Research, priority 2018, published 2020)
